Assay: Evaluation of an image (blotting on plain paper)
Design: key: ⊚: Blotting is not observed.; ◯: Blotting is observed without any influence on an image.; X: Blotting is notably observed
Details: aqueous ink
[1] = ink production process Example 1
[2] = ink production process Example 2

| SMILES | B (Evaluation of an image, blotting) [1] | B (Evaluation of an image, blotting) [2] |
| --- | --- | --- |
| CCCCCCCCN(CCCCCCCC)c1cccc(Oc2cc(O)c3c(c2N)C(=O)c2ccccc2C3=O)c1 [Coloring matter No. 1] | ⊚ |  |
| O=C1c2ccccc2C(=O)c2c1ccc(O)c2O [Comparative Example 1, reference compound] | X |  |
| Nc1ccccc1Oc1cc(O)c2c(c1N)C(=O)c1ccccc1C2=O [compound 4] | ⊚ | ⊚ |
| CN(C)c1cccc(Oc2cc(O)c3c(c2N)C(=O)c2ccccc2C3=O)c1 [compound 5] | ⊚ | ⊚ |
| CCNc1cccc(Oc2cc(O)c3c(c2N)C(=O)c2ccccc2C3=O)c1 [compound 6] | ⊚ | ⊚ |
| CCN(CC)c1cccc(Oc2cc(O)c3c(c2N)C(=O)c2ccccc2C3=O)c1 [compound 7] | ⊚ | ⊚ |
| CCCN(CCC)c1cccc(Oc2cc(O)c3c(c2N)C(=O)c2ccccc2C3=O)c1 [compound 8] | ⊚ | ⊚ |
| CCCCN(CCCC)c1cccc(Oc2cc(O)c3c(c2N)C(=O)c2ccccc2C3=O)c1 [compound 9] | ⊚ | ⊚ |
| CCCCCCN(CCCCCC)c1cccc(Oc2cc(O)c3c(c2N)C(=O)c2ccccc2C3=O)c1 [compound 10] | ⊚ | ⊚ |
| CCCC(C)N(c1cccc(Oc2cc(O)c3c(c2N)C(=O)c2ccccc2C3=O)c1)C(C)CCC (stereo not shown) [compound 11] | ⊚ | ⊚ |
| Nc1c(Oc2ccc(C(c3ccccc3)c3ccccc3)cc2)cc(O)c2c1C(=O)c1ccccc1C2=O [compound 12] | ⊚ | ⊚ |
| CCN(CC)c1cccc(Oc2cc(O)c3c(c2N)C(=O)c2cc(C)ccc2C3=O)c1 [compound 13] | ⊚ | ⊚ |
| CCCCN(CCCC)c1cccc(Oc2cc(O)c3c(c2N)C(=O)c2ccc(CC)cc2C3=O)c1 [compound 14] | ⊚ | ⊚ |
| CCc1ccc2c(c1)C(=O)c1c(O)cc(Oc3cccc(N(CC)CC)c3)c(N)c1C2=O [compound 15] | ⊚ | ⊚ |
| CCN(CC)c1cccc(Oc2cc(O)c3c(c2N)C(=O)c2ccc(OC)cc2C3=O)c1 [compound 16] | ⊚ | ⊚ |
| CCCCCCN(CCCCCC)c1cccc(Oc2cc(O)c3c(c2N)C(=O)c2cccc(C)c2C3=O)c1 [compound 18] | ⊚ | ⊚ |
| CCCCC(CC)CC(=O)Nc1ccc(O)cc1Sc1cc(O)c2c(c1N)C(=O)c1ccccc1C2=O (stereo not shown) [compound 19] | ◯ |  |
| CCCCCCCCOC(=O)CSc1cc(O)c2c(c1N)C(=O)c1ccccc1C2=O [compound 20] | ◯ |  |
| CCCCCCCCSc1cc(O)c2c(c1N)C(=O)c1ccccc1C2=O [compound 21] | ◯ |  |

| SMILES | B (Evaluation of an image, blotting) [1] | B (Evaluation of an image, blotting) [2] |
| --- | --- | --- |
| Nc1ccccc1Sc1cc(O)c2c(c1N)C(=O)c1ccccc1C2=O [compound 22] | ◯ |  |
| Nc1c(Oc2ccccc2)cc(O)c2c1C(=O)c1ccccc1C2=O [compound 23] | ◯ |  |
| Cc1cccc(Oc2cc(O)c3c(c2N)C(=O)c2ccccc2C3=O)c1 [compound 24] | ◯ |  |
| Cc1ccc(CCCOc2cc(O)c3c(c2N)C(=O)c2ccccc2C3=O)cc1 [compound 25] | ◯ |  |
| CCCCC(CC)COC(=O)CSc1cccc(Oc2cc(O)c3c(c2N)C(=O)c2ccccc2C3=O)c1 (stereo not shown) [compound 26] | ◯ |  |
| CCCCCCCCCCCCCCCCCCOC(=O)CSc1cc(O)c2c(c1N)C(=O)c1ccccc1C2=O [compound 27] | ◯ |  |
| CCCCC(CC)COC(=O)CSc1ccccc1Oc1cc(O)c2c(c1N)C(=O)c1ccccc1C2=O (stereo not shown) [compound 28] | ◯ |  |
| CCCCC(CC)COC(=O)CCSc1cc(O)c2c(c1N)C(=O)c1ccccc1C2=O (stereo not shown) [compound 29] | ◯ |  |
| CCCCC(CC)COC(=O)CSc1cc(O)c2c(c1N)C(=O)c1ccccc1C2=O (stereo not shown) [compound 30] | ◯ |  |
| Nc1c(SCCOCCSc2cc(O)c3c(c2N)C(=O)c2ccccc2C3=O)cc(O)c2c1C(=O)c1ccccc1C2=O [compound 31] | ◯ |  |
| CCCCOC(=O)CSc1cc(O)c2c(c1N)C(=O)c1ccccc1C2=O [compound 32] | ◯ |  |
| CCCCC(CC)C(=O)Nc1ccccc1Oc1cc(O)c2c(c1N)C(=O)c1ccccc1C2=O (stereo not shown) [compound 33] | ⊚ |  |
| CCCCC(CC)C(=O)Nc1cccc(Oc2cc(O)c3c(c2N)C(=O)c2ccccc2C3=O)c1 (stereo not shown) [compound 34] | ⊚ |  |
| Nc1c(Oc2ccccc2NC(=O)c2ccccc2)cc(O)c2c1C(=O)c1ccccc1C2=O [compound 35] | ⊚ |  |
| CCCCN(CCCC)c1cccc(CCOc2cc(O)c3c(c2N)C(=O)c2ccccc2C3=O)c1 [compound 36] | ⊚ |  |
| Nc1c(Oc2cccc(C(F)(F)F)c2)cc(O)c2c1C(=O)c1ccccc1C2=O [compound 37] | ◯ |  |
| CCCCCCCCCc1ccc(Oc2cc(O)c3c(c2N)C(=O)c2ccccc2C3=O)cc1 [compound 38] | ◯ |  |
| CCCCC(CC)C(=O)Oc1ccc(Oc2cc(O)c3c(c2N)C(=O)c2ccccc2C3=O)cc1 (stereo not shown) [compound 39] | ◯ |  |
| CCCCC(CC)COC(=O)CSc1ccc(Oc2cc(O)c3c(c2N)C(=O)c2ccccc2C3=O)cc1 (stereo not shown) [compound 40] | ◯ |  |
